Results reported in publication PMC4741751.
Results are given in words; binding and its absence hold for the method and conditions named. Binding seen in cells or lysates may run through a third protein. Some results given as binding are weak or reduced against the parent protein; the word gives no strength.

By UniProt entry, the sequences of proteins in these tests, tags left out.
UniProt P42336: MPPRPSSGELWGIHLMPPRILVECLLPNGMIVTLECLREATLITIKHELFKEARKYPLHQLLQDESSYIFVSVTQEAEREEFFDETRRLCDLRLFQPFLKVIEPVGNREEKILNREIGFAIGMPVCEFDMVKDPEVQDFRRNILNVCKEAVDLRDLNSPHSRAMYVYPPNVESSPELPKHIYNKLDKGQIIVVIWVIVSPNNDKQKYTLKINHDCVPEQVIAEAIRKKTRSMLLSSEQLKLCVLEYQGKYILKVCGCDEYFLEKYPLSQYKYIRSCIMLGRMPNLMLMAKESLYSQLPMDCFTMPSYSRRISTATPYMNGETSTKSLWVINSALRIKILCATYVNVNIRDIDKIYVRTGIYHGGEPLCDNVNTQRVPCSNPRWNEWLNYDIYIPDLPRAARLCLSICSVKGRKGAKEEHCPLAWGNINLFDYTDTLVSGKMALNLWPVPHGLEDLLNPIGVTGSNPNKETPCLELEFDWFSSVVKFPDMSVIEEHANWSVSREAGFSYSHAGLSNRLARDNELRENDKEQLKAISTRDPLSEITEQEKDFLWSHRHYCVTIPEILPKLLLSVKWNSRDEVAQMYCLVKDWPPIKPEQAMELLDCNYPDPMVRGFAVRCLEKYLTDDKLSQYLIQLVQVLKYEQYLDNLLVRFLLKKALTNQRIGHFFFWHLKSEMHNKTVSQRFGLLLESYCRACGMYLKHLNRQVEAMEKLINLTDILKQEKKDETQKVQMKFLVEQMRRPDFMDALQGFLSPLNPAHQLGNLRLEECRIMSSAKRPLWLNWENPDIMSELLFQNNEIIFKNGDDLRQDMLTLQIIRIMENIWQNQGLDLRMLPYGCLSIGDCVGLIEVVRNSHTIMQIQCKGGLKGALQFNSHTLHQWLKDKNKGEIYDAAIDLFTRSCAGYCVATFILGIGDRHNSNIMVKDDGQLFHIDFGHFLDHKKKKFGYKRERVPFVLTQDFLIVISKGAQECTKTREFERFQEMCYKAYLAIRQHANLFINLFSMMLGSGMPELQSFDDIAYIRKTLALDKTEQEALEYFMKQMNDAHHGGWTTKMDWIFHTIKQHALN
UniProt Q9UQ13: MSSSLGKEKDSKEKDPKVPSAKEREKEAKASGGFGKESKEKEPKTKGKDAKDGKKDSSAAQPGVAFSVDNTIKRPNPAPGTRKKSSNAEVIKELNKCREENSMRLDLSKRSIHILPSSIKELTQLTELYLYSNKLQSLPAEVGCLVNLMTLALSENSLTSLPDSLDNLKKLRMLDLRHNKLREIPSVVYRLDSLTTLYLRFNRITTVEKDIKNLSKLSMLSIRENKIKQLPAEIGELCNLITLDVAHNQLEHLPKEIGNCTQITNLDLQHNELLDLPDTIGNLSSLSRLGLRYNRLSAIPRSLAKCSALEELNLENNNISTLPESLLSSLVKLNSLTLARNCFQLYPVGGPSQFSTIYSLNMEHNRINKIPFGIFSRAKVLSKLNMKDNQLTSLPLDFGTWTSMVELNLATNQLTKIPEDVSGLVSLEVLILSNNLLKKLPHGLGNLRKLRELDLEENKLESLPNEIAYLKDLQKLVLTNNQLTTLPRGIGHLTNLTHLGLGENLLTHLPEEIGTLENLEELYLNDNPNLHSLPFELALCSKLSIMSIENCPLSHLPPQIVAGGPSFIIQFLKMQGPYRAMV

Target: p110α subunit of PI3K in lysates of HEK293 cells transfected with the indicated plasmids (Figure 5C-E) (UniProt P42336)
Test: co-IP; HEK293 cells transfected with the indicated plasmids, treated or not with EGF (10 minutes), or with wild type or oncogenic H-Ras; whole cell lysates immunoprecipitated with anti-p110α antibody and protein A/G agarose, 12 hours at 4°C; immunoblot

binding: binds
Substance: Sur8 in lysates of HEK293 cells transfected with the indicated plasmids (Figure 5C-E) (from UniProt Q9UQ13 1-582)
